# PubChem BioAssay AID1259425, University of Nebraska Medical Center – 2018
# Assay: 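Compare each knockdown with KSR1 silencing using changes in marker transcripts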 (primary screen)
# Cell system: HCT116 human colon cancer cells
# Knock-down reagent: siRNA pool against human genes, 50 nM siRNA
# Measured: 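After 50 nM siRNA pool, branched-DNA assay measures six marker transcripts per well, minus blank, normalised to the geometric mean of two housekeeping transcripts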
# Scale: BNIP3L mRNA: higher = more BNIP3L transcript after knockdown; NDRG1 mRNA: higher = more NDRG1 transcript after knockdown; BNIP3 mRNA: higher = more BNIP3 transcript after knockdown; ALDOC mRNA: higher = more ALDOC transcript after knockdown; ACSL5 mRNA: higher = more ACSL5 transcript after knockdown
# In all, the deposit lists about 14,000 reagents; shown is an unselected part. A reagent listed more than once was tested more than once; the source does not tell the runs apart. No sequences are given here. Not stated in the record: the time to read-out.
gene symbol,"BNIP3L mRNA, set 1","NDRG1 mRNA, set 1","BNIP3 mRNA, set 1","ALDOC mRNA, set 1","ACSL5 mRNA, set 1"
COA3 (GeneID 28958),0.112,1.05,0.334,0.038,0.225
LTBP2 (GeneID 4053),0.152,0.0636,0.304,0.0168,0.356
THOC5 (GeneID 8563),0.158,0.218,0.32,0.0207,0.229
SPRR1A (GeneID 6698),0.19,0.651,0.257,0.0637,0.111
IL1RAPL2 (GeneID 26280),0.1,0.157,0.352,0.0285,0.16
SNAI1 (GeneID 6615),0.0931,0.415,0.247,0.0106,0.271
MALL (GeneID 7851),0.0946,0.106,0.324,0.01,0.102
POU3F3 (GeneID 5455),0.0624,0.237,0.256,0.00902,0.193
PRDM13 (GeneID 59336),0.163,0.086,0.241,0.0381,0.114
BANK1 (GeneID 55024),0.152,0.609,0.184,0.0296,0.228
FKBP5 (GeneID 2289),0.0899,0.0876,0.205,0.03,0.135
KLHL21 (GeneID 9903),0.083,0.313,0.264,0.0265,0.218
GRTP1 (GeneID 79774),0.132,0.366,0.294,0.0288,0.185
RFNG (GeneID 5986),0.123,0.155,0.255,0.0131,0.0735
NFU1 (GeneID 27247),0.165,0.122,0.305,0.0147,0.132
ATP8B2 (GeneID 57198),0.182,0.422,0.35,0.0624,0.28
SUPT3H (GeneID 8464),0.135,0.298,0.308,0.00687,0.124
RNFT1 (GeneID 51136),0.119,0.177,0.227,0.0312,0.22
CSNK1A1 (GeneID 1452),0.0241,0.0654,0.328,0.0131,0.248
CYP2B6 (GeneID 1555),0.0854,0.131,0.311,0.0366,0.138
SMC1A (GeneID 8243),0.192,0.584,0.332,0.0848,0.161
ANKMY2 (GeneID 57037),0.181,0.391,0.415,0.0535,0.613
C5orf22 (GeneID 55322),0.0959,0.345,0.389,0.0382,0.353
EXTL3 (GeneID 2137),0.102,0.109,0.237,0.00766,0.193
ARID5A (GeneID 10865),0.105,0.207,0.149,0.0162,0.117
GRIN2D (GeneID 2906),0.0775,0.255,0.221,0.0291,0.201
SERGEF (GeneID 26297),0.191,0.225,0.344,0.0381,0.166

Continued, starting with the last 6 of the part before.
gene symbol,"BNIP3L mRNA, set 1","NDRG1 mRNA, set 1","BNIP3 mRNA, set 1","ALDOC mRNA, set 1","ACSL5 mRNA, set 1"
ANKMY2 (GeneID 57037),0.181,0.391,0.415,0.0535,0.613
C5orf22 (GeneID 55322),0.0959,0.345,0.389,0.0382,0.353
EXTL3 (GeneID 2137),0.102,0.109,0.237,0.00766,0.193
ARID5A (GeneID 10865),0.105,0.207,0.149,0.0162,0.117
GRIN2D (GeneID 2906),0.0775,0.255,0.221,0.0291,0.201
SERGEF (GeneID 26297),0.191,0.225,0.344,0.0381,0.166
TRAFD1 (GeneID 10906),0.053,0.0623,0.165,0.0252,0.0933
ERI1 (GeneID 90459),0.0778,0.391,0.323,0.0357,0.276
CDC5L (GeneID 988),0.0833,0.0766,0.437,0.0424,0.0725
UBR5 (GeneID 51366),0.117,0.107,0.255,0.0325,0.0924
AFF3 (GeneID 3899),0.0986,0.094,0.401,0.00166,0.162
PTK2B (GeneID 2185),0.232,0.263,0.442,0.00383,0.349
GDF15 (GeneID 9518),0.154,0.219,0.163,0.0247,0.132
SLC8A3 (GeneID 6547),0.15,0.383,0.228,0.0995,0.0835
STIP1 (GeneID 10963),0.113,0.263,0.307,0.0258,0.158
LRRFIP2 (GeneID 9209),0.0931,0.128,0.423,0.0298,0.297
PDLIM3 (GeneID 27295),0.147,0.305,0.347,0.0328,0.125
PDLIM3 (GeneID 27295),0.137,0.211,0.412,0.00941,0.231
ARHGEF9 (GeneID 23229),0.106,0.274,0.402,0.0139,0.169
ASPM (GeneID 259266),0.144,1.12,0.368,0.023,0.163
ANAPC7 (GeneID 51434),0.0537,0.205,0.289,0.03,0.153
GZMB (GeneID 3002),0.0753,0.161,0.25,0.00982,0.117
POU6F1 (GeneID 5463),0.0669,0.135,0.419,0.0226,0.109
MT1B (GeneID 4490),0.123,0.305,0.318,0.0199,0.274
NLGN3 (GeneID 54413),0.14,0.125,0.365,0.0135,0.0844
INGX (GeneID 27160),0.0498,0.0591,0.392,0.0131,0.0408
RHBDF1 (GeneID 64285),0.212,0.217,0.279,0.0243,0.256
EMC9 (GeneID 51016),0.116,0.12,0.291,0.0186,0.146
CDR2L (GeneID 30850),0.125,0.0812,0.272,0.00992,0.0911
